The list shows a part of the results, in another mix than the full data. Calls are pooled over several reports, among them a noisy single-well screen. Some of the results follow.
How the values were obtained:
Conditions in all cases: stereoisomer not certain
[1] = biological target: T1, OR6C2 (Homo sapiens) (UniProt Q9NZP2)
T1 sequence (whole entry): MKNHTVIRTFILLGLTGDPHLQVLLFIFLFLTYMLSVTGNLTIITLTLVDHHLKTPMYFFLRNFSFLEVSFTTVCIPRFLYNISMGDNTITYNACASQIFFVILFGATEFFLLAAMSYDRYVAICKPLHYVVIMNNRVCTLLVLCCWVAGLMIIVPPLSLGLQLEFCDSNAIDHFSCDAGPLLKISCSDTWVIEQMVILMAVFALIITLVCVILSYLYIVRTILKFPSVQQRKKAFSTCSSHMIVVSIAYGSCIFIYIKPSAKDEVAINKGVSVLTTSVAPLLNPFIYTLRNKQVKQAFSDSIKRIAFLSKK
Outline: (§1)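 Values were gathered from published papers (main text and supplementary material), with extra details requested from the original authors when needed, and checked for typos and inconsistencies. Each receptor–molecule pair is called responsive (active) if the original authors judged the measured signal statistically different from baseline, and non-responsive (inactive) otherwise. Assay methods varied by source, often transient mammalian cell-line luciferase assays. Recorded details include cell line, G-protein, co-transfected protein and tags.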

[2] = biological target: T2, OR6C3 (Homo sapiens) (UniProt Q9NZP0)
T2 sequence (whole entry): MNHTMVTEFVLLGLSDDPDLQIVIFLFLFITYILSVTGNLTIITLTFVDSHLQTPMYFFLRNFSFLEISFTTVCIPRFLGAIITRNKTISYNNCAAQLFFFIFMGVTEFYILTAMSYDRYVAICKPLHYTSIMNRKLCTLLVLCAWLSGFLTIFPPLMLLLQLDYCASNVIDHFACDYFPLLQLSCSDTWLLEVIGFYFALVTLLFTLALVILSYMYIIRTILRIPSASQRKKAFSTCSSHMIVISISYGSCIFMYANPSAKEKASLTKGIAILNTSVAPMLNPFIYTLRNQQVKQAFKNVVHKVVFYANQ
Outline: as §1

[3] = system: T3, OR6C4
T3 sequence (whole entry): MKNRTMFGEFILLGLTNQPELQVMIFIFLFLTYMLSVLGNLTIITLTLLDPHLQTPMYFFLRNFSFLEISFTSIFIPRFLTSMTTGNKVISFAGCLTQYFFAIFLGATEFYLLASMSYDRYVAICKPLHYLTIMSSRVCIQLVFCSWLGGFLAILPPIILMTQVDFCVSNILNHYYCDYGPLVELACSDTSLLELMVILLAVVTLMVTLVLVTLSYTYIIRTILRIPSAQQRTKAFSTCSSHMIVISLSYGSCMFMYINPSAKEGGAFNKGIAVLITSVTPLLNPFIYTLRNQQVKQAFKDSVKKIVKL
Outline: as §1

[4] = biological target: T4, OR6C6 (Homo sapiens) (UniProt A6NF89)
T4 sequence (whole entry): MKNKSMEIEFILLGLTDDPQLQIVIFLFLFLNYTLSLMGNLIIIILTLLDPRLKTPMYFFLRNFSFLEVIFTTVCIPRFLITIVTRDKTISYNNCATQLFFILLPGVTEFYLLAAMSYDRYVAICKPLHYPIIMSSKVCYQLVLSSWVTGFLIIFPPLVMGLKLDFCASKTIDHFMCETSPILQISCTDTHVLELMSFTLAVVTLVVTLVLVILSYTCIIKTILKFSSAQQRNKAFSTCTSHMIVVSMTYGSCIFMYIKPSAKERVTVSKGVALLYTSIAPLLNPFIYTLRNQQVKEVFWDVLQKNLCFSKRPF
Outline: as §1

[5] = biological target: T5, OR6C65 (Homo sapiens) (UniProt A6NJZ3)
T5 sequence (whole entry): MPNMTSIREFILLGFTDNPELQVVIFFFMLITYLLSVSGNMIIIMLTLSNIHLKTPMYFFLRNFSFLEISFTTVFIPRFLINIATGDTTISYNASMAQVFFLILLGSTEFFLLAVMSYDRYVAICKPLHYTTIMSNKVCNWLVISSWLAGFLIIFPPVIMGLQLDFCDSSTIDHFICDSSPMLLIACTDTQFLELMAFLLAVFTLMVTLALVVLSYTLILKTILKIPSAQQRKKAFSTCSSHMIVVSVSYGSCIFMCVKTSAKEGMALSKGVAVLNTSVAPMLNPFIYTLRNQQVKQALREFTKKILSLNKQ
Outline: as §1

[6] = biological target: T6, OR6C74 (Homo sapiens) (UniProt A6NCV1)
T6 sequence (whole entry): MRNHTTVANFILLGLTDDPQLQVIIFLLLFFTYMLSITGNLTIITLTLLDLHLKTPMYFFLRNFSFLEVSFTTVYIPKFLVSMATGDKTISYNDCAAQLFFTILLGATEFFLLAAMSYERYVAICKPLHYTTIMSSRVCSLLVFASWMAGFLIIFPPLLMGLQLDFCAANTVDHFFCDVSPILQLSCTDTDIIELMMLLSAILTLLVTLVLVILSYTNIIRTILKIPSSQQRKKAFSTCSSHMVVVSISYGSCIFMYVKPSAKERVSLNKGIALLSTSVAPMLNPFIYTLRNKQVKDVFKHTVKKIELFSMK
Outline: as §1

[7] = biological target: T7, OR6C75 (Homo sapiens) (UniProt A6NL08)
T7 sequence (whole entry): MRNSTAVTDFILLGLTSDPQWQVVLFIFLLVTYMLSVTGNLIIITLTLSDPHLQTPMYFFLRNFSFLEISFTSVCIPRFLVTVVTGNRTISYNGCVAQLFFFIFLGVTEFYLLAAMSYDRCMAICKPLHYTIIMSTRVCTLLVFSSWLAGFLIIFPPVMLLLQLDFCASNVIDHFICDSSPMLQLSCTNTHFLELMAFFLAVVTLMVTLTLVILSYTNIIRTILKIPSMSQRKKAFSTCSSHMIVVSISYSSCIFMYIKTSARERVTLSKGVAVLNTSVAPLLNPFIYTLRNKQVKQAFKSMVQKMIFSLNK
Outline: as §1

[8] = biological target: T8, OR6C76 (Homo sapiens) (UniProt A6NM76)
T8 sequence (whole entry): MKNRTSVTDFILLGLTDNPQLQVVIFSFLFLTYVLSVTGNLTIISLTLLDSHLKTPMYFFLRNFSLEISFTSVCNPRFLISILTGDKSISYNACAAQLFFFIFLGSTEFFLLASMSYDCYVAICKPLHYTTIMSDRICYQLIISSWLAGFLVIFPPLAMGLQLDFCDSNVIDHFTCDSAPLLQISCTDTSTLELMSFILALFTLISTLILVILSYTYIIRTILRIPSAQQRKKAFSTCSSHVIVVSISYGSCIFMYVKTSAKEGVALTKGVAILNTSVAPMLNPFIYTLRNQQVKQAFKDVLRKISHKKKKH
Outline: as §1

[9] = biological target: T9, OR6F1 (Homo sapiens) (UniProt Q8NGZ6)
T9 sequence (whole entry): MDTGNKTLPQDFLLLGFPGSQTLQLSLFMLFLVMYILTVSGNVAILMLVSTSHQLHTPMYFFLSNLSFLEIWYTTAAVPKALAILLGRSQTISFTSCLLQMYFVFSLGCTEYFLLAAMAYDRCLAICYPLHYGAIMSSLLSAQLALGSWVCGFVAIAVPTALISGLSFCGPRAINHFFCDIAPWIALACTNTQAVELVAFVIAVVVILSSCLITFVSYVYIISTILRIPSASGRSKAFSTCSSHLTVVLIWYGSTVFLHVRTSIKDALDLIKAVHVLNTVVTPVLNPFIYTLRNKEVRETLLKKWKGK
Outline: as §1

[10] = system: T10, OR6J1
T10 sequence (whole entry): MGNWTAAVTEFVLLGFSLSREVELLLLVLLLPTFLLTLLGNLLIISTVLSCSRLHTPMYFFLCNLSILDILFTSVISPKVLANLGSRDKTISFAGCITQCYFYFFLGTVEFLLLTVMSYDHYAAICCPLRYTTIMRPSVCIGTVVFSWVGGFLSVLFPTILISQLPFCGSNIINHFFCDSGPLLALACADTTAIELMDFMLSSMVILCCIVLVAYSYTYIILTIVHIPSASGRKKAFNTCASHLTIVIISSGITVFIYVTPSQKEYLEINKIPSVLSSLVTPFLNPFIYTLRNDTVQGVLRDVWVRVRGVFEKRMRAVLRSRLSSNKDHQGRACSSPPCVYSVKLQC
Outline: as §1

Measured: odorant receptor agonist call

CCCCOC(C)=O
inactive: all assays above

Reference: the M2OR odorant receptor database
